# Laboratory results reported in the supplement of paper PMC8728848.
# The other results are listed elsewhere or left out.
# Legend:
# Assay in all cases: glycan array binding signal (z-score within array); higher = stronger binding
# Details in all cases: glycan notation: IUPAC condensed, linker removed
# Fuc(a1-2)Gal = molecular target: Fuc(a1-2)Gal
# Summary of the method: (§1)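 From the Consortium for Functional Glycomics database, 3228 arrays were curated, keeping only those whose protein sequence was available. Binding is given as a within-array Z-score averaged across arrays sharing a protein sequence and across linkers. Negative Z-scores can be read as non-binding.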
# Fuc(a1-2)Gal(b1-3)GalNAc = molecular target: Fuc(a1-2)Gal(b1-3)GalNAc
# Summary of the method: as §1
# [1] = molecular target: Fuc(a1-2)Gal(b1-3)GalNAc(b1-3)Gal
# Summary of the method: as §1
# [2] = molecular target: Fuc(a1-2)Gal(b1-3)GalNAc(b1-3)Gal(a1-4)Gal(b1-4)Glc
# Summary of the method: as §1
# [3] = molecular target: Fuc(a1-2)Gal(b1-3)GalNAc(b1-4)[Neu5Ac(a2-3)]Gal(b1-4)Glc
# Summary of the method: as §1
# Fuc(a1-2)Gal(b1-3)GlcNAc = molecular target: Fuc(a1-2)Gal(b1-3)GlcNAc
# Summary of the method: as §1
# [4] = molecular target: Fuc(a1-2)Gal(b1-3)GlcNAc(b1-3)Gal(b1-4)Glc
# Summary of the method: as §1
# [5] = molecular target: Fuc(a1-2)Gal(b1-3)[Fuc(a1-4)]GlcNAc
# Summary of the method: as §1
# Fuc(a1-2)Gal(b1-4)Glc = molecular target: Fuc(a1-2)Gal(b1-4)Glc
# Summary of the method: as §1
# Fuc(a1-2)Gal(b1-4)Glc6S = molecular target: Fuc(a1-2)Gal(b1-4)Glc6S
# Summary of the method: as §1
# Fuc(a1-2)Gal(b1-4)GlcNAc = molecular target: Fuc(a1-2)Gal(b1-4)GlcNAc
# Summary of the method: as §1
# [6] = molecular target: Fuc(a1-2)Gal(b1-4)GlcNAc(b1-3)Gal(b1-4)GlcNAc
# Summary of the method: as §1
# [7] = molecular target: Fuc(a1-2)Gal(b1-4)GlcNAc(b1-3)Gal(b1-4)GlcNAc(b1-3)Gal(b1-4)GlcNAc
# Summary of the method: as §1
# [8] = molecular target: Fuc(a1-2)Gal(b1-4)GlcNAc6S
# Summary of the method: as §1
# [9] = molecular target: Fuc(a1-2)Gal(b1-4)[Fuc(a1-3)]GlcNAc
# Summary of the method: as §1
# [10] = molecular target: Fuc(a1-2)Gal(b1-4)[Fuc(a1-3)]GlcNAc(b1-3)Gal(b1-4)[Fuc(a1-3)]GlcNAc
# Summary of the method: as §1
# [11] = molecular target: Fuc(a1-2)Gal(b1-4)[Fuc(a1-3)]GlcNAc(b1-3)Gal(b1-4)[Fuc(a1-3)]GlcNAc(b1-3)Gal(b1-4)[Fuc(a1-3)]GlcNAc
# Summary of the method: as §1
# Fuc(a1-2)Gal6S(b1-4)Glc = molecular target: Fuc(a1-2)Gal6S(b1-4)Glc
# Summary of the method: as §1
# [12] = molecular target: Fuc(a1-2)Gal6S(b1-4)Glc6S
# Summary of the method: as §1
# [13] = molecular target: Fuc(a1-2)Gal6S(b1-4)GlcNAc
# Summary of the method: as §1
# Fuc(a1-2)GlcNAc = molecular target: Fuc(a1-2)GlcNAc
# Summary of the method: as §1
# Fuc(a1-2)[Gal(a1-3)]Gal = molecular target: Fuc(a1-2)[Gal(a1-3)]Gal
# Summary of the method: as §1
# [14] = molecular target: Fuc(a1-2)[Gal(a1-3)]Gal(b1-3)GlcNAc
# Summary of the method: as §1
# [15] = molecular target: Fuc(a1-2)[Gal(a1-3)]Gal(b1-4)Glc
# Summary of the method: as §1
# [16] = molecular target: Fuc(a1-2)[Gal(a1-3)]Gal(b1-4)GlcNAc
# Summary of the method: as §1
# [17] = molecular target: Fuc(a1-2)[Gal(a1-3)]Gal(b1-4)[Fuc(a1-3)]GlcNAc
# Summary of the method: as §1
# [18] = molecular target: Fuc(a1-2)[Gal(a1-4)]Gal(b1-4)GlcNAc
# Summary of the method: as §1
# [19] = molecular target: Fuc(a1-2)[GalNAc(a1-3)]Gal
# Summary of the method: as §1
# [20] = molecular target: Fuc(a1-2)[GalNAc(a1-3)]Gal(b1-3)GlcNAc
# Summary of the method: as §1
# [21] = molecular target: Fuc(a1-2)[GalNAc(a1-3)]Gal(b1-4)Glc
# Summary of the method: as §1
# [22] = molecular target: Fuc(a1-2)[GalNAc(a1-3)]Gal(b1-4)GlcNAc
# Summary of the method: as §1
# [23] = molecular target: Fuc(a1-2)[GalNAc(a1-3)]Gal(b1-4)[Fuc(a1-3)]GlcNAc
# Summary of the method: as §1
# [24] = molecular target: Fuc(a1-2)[GalNAc(a1-4)]Gal(b1-4)GlcNAc
# Summary of the method: as §1
# [25] = molecular target: Fuc(a1-2)[GalNAc(b1-3)]Gal
# Summary of the method: as §1
# Fuc(a1-3)GlcNAc = molecular target: Fuc(a1-3)GlcNAc
# Summary of the method: as §1
# [26] = molecular target: Fuc(a1-3)[Gal(b1-4)]Glc6S
# Summary of the method: as §1
# [27] = molecular target: Fuc(a1-3)[Gal(b1-4)]GlcNAc
# Summary of the method: as §1
# [28] = molecular target: Fuc(a1-3)[Gal(b1-4)]GlcNAc(b1-3)Gal(b1-3)[Fuc(a1-4)]GlcNAc
# Summary of the method: as §1
# [29] = molecular target: Fuc(a1-3)[Gal(b1-4)]GlcNAc(b1-4)Gal(b1-4)[Fuc(a1-3)]GlcNAc
# Summary of the method: as §1
# [30] = molecular target: Fuc(a1-3)[Gal(b1-4)]GlcNAc(b1-4)Gal(b1-4)[Fuc(a1-3)]GlcNAc(b1-4)Gal(b1-4)[Fuc(a1-3)]GlcNAc
# Summary of the method: as §1
# [31] = molecular target: Fuc(a1-3)[Gal(b1-4)]GlcNAc6S
# Summary of the method: as §1
# [32] = molecular target: Fuc(a1-3)[Gal3S(b1-4)]Glc6S
# Summary of the method: as §1
# [33] = molecular target: Fuc(a1-3)[Gal3S(b1-4)]GlcNAc
# Summary of the method: as §1
# [34] = molecular target: Fuc(a1-3)[Gal3S(b1-4)]GlcNAc6S
# Summary of the method: as §1
# [35] = molecular target: Fuc(a1-3)[GalNAc(b1-4)]GlcNAc
# Summary of the method: as §1
binder,measurement,setting,value
"CTMLA2 (Anopheles gambiae), Q7Q7F8 (protein) MNLMITILIAVITVVRGDLSVPKTVDDILQQNPCLCPCKPFEEKEYFIPISRTSDWFGAVAYCHSVGMELAEVLNEDEARAMGEVIAEEESDSDDEFYWIGANDLGVQGTYRWALAGRPVLYSQWAAGEPNHARGENGQQPAERCVAVAMDKYEWNDFQCTQQKPFICQQFRKH",glycan array binding signal (z-score),Fuc(a1-2)Gal,0.854
same,glycan array binding signal (z-score),Fuc(a1-2)Gal(b1-3)GalNAc,0.204
same,glycan array binding signal (z-score),[1],0.243
same,glycan array binding signal (z-score),[2],0.099
same,glycan array binding signal (z-score),[3],-0.235
same,glycan array binding signal (z-score),Fuc(a1-2)Gal(b1-3)GlcNAc,-0.124
same,glycan array binding signal (z-score),[4],-0.357
same,glycan array binding signal (z-score),[5],0.014
same,glycan array binding signal (z-score),Fuc(a1-2)Gal(b1-4)Glc,0.14
same,glycan array binding signal (z-score),Fuc(a1-2)Gal(b1-4)Glc6S,-0.485
same,glycan array binding signal (z-score),Fuc(a1-2)Gal(b1-4)GlcNAc,-0.282
same,glycan array binding signal (z-score),[6],-0.253
same,glycan array binding signal (z-score),[7],0.264
same,glycan array binding signal (z-score),[8],-0.569
same,glycan array binding signal (z-score),[9],-0.269
same,glycan array binding signal (z-score),[10],-0.028
same,glycan array binding signal (z-score),[11],-0.09
same,glycan array binding signal (z-score),Fuc(a1-2)Gal6S(b1-4)Glc,-0.575
same,glycan array binding signal (z-score),[12],-0.492
same,glycan array binding signal (z-score),[13],-0.3
same,glycan array binding signal (z-score),Fuc(a1-2)GlcNAc,0.212
same,glycan array binding signal (z-score),Fuc(a1-2)[Gal(a1-3)]Gal,-0.094
same,glycan array binding signal (z-score),[14],0.359
same,glycan array binding signal (z-score),[15],-0.278
same,glycan array binding signal (z-score),[16],-0.574
same,glycan array binding signal (z-score),[17],0.265
same,glycan array binding signal (z-score),[18],-0.275
same,glycan array binding signal (z-score),[19],-0.171
same,glycan array binding signal (z-score),[20],-0.004
same,glycan array binding signal (z-score),[21],-0.519
same,glycan array binding signal (z-score),[22],-0.194
same,glycan array binding signal (z-score),[23],0.192
same,glycan array binding signal (z-score),[24],0.159
same,glycan array binding signal (z-score),[25],-0.102
same,glycan array binding signal (z-score),Fuc(a1-3)GlcNAc,0.239
same,glycan array binding signal (z-score),[26],-0.163
same,glycan array binding signal (z-score),[27],-0.113
same,glycan array binding signal (z-score),[28],-0.022
same,glycan array binding signal (z-score),[29],0.419
same,glycan array binding signal (z-score),[30],-0.011
same,glycan array binding signal (z-score),[31],-0.185
same,glycan array binding signal (z-score),[32],0.247
same,glycan array binding signal (z-score),[33],-0.137
same,glycan array binding signal (z-score),[34],0.052
same,glycan array binding signal (z-score),[35],-0.194

# At a glance, some entries already given.
binder,measurement,setting,value
"CTMLA2 (Anopheles gambiae), Q7Q7F8 (protein) MNLMITILIAVITVVRGDLSVPKTVDDILQQNPCLCPCKPFEEKEYFIPISRTSDWFGAVAYCHSVGMELAEVLNEDEARAMGEVIAEEESDSDDEFYWIGANDLGVQGTYRWALAGRPVLYSQWAAGEPNHARGENGQQPAERCVAVAMDKYEWNDFQCTQQKPFICQQFRKH",glycan array binding signal (z-score),[17],0.265
same,glycan array binding signal (z-score),[18],-0.275
